In PubChem BioAssay AID330 (DTP/NCI, 2004) one finds T/C and survivor count data, which are given here for 20 compounds.

The list shows only some results of the screen, not a fair sample: it is rich in T/C values a quarter to a half above the control, in often repeated tests (any T/C) and in doses without a T/C. Further doses and runs are listed elsewhere. T/C is the treated group as % of the vehicle group. Some entries give survivors of the animals treated and no T/C: the source holds a T/C of zero for them, seemingly a mark for toxic or unscored doses. Some doses without a T/C left all or most animals alive at the check, yet need not have been tolerated: survival well below the control is almost never listed, so the zero probably covers shortened survival too. Survivors were counted at the toxicity check, usually on the fifth day, unless a day is given; later deaths do not show. Schedule codes are those of the source, taken here to give the interval after Q, in days (D) or hours (H), and the number of doses after X. Some doses were run more than once; the values are given in rising order. Counts like (3×) say how often a value occurs here. Where survival is the endpoint, this PubChem deposit counts one and a half times the control or more as active, and values a quarter to a half above the control carry no call in these data; other NCI protocols may use other cut-offs.

This test relates to P388 leukemia ip, CD2F1 mice, survival T/C. Put plainly: NCI In Vivo Anticancer Drug Screen. Data for tumor model P388 Leukemia (intraperitoneal) in CD2F1 (CDF1) mice. As to conditions: T/C endpoint: median survival time, higher T/C = longer survival.
[1] abbreviates: dose: 25.0 mg/kg/injection, schedule: Q01DX009 (ip), vehicle: Klucel (hydroxypropylcellulose) (HPC).
[2] abbreviates: dose: 50.0 mg/kg/injection, schedule: Q01DX009 (ip), vehicle: Klucel (hydroxypropylcellulose) (HPC).
[3] abbreviates: dose: 100.0 mg/kg/injection, schedule: Q01DX009 (ip), vehicle: Klucel (hydroxypropylcellulose) (HPC).
Where [4] appears, read: dose: 200.0 mg/kg/injection, schedule: Q01DX009 (ip), vehicle: saline.
Setting [5] is: dose: 400.0 mg/kg/injection, schedule: Q01DX009 (ip), vehicle: distilled water + Tween-80.
Where [6] appears, read: dose: 25.0 mg/kg/injection, schedule: Q01DX009 (ip), vehicle: saline.
Where [7] appears, read: dose: 200.0 mg/kg/injection, schedule: Q04DX002 (ip), vehicle: Klucel (hydroxypropylcellulose) (HPC).
[8] abbreviates: dose: 400.0 mg/kg/injection, schedule: Q04DX002 (ip), vehicle: Klucel (hydroxypropylcellulose) (HPC).
Setting [9] is: dose: 200.0 mg/kg/injection, schedule: Q01DX005 (ip), vehicle: saline with Tween-80.
The mark [10] stands for this setting: dose: 240.0 mg/kg/injection, schedule: Q01DX005 (ip), vehicle: saline with Tween-80.
Setting [11] is: dose: 100.0 mg/kg/injection, schedule: Q01DX005 (ip), vehicle: saline with Tween-80.
Setting [12] is: dose: 6.25 mg/kg/injection, schedule: Q01DX009 (ip), vehicle: saline.

Take `OC(CBr)C(O)C(O)C(O)CBr` (centres undefined): the T/C under setting [1] was 126 % of control; the T/C (dose: 30.0 mg/kg/injection, schedule: Q01DX009 (ip), vehicle: Klucel (hydroxypropylcellulose) (HPC)) is 135 % of control; the T/C (dose: 40.0 mg/kg/injection, schedule: Q01DX009 (ip), vehicle: Klucel (hydroxypropylcellulose) (HPC)) is 148 % of control; the T/C under setting [2] is 137 % of control; the T/C (dose: 50.0 mg/kg/injection, schedule: Q01DX009 (ip), vehicle: distilled water + Tween-80) was 135 % of control; the T/C (dose: 80.0 mg/kg/injection, schedule: Q01DX005 (ip), vehicle: Klucel (hydroxypropylcellulose) (HPC)) is 134 and 140 % of control. Besides, the T/C runs as follows: under setting [3], 144 % of control; (dose: 100.0 mg/kg/injection, schedule: Q01DX009 (ip), vehicle: distilled water + Tween-80) 144 % of control; (dose: 120.0 mg/kg/injection, schedule: Q01DX005 (ip), vehicle: Klucel (hydroxypropylcellulose) (HPC)) 148 % of control; (dose: 200.0 mg/kg/injection, schedule: Q01DX009 (ip), vehicle: Klucel (hydroxypropylcellulose) (HPC)) 138 % of control; (dose: 200.0 mg/kg/injection, schedule: Q01DX009 (ip), vehicle: distilled water + Tween-80) 132 % of control; under setting [4], 148 % of control. Besides, the T/C was 127 % of control (dose: 400.0 mg/kg/injection, schedule: Q01DX010 (ip), vehicle: saline); 137 % of control (dose: 600.0 mg/kg/injection, schedule: Q01DX009 (ip), vehicle: saline with Tween-80); 130 % of control (dose: 800.0 mg/kg/injection, schedule: Q01DX009 (ip), vehicle: saline with Tween-80). Besides, the survivor count under setting [3] is 3 of 6; the survivor count (dose: 180.0 mg/kg/injection, schedule: Q01DX005 (ip), vehicle: Klucel (hydroxypropylcellulose) (HPC)) was 10 of 10; the survivor count (dose: 400.0 mg/kg/injection, schedule: Q01DX009 (ip), vehicle: Klucel (hydroxypropylcellulose) (HPC)) is reported as 10 of 10; the survivor count under setting [5] is recorded as 6 of 6; the survivor count (dose: 1200.0 mg/kg/injection, schedule: Q01DX009 (ip), vehicle: saline with Tween-80) was 6 of 10.

`Cc1csc(=NCc2cccnc2)n1C`: the survivor count reads like this: under setting [6], 1 of 6; (dose: 50.0 mg/kg/injection, schedule: Q01DX009 (ip), vehicle: saline) 0 of 6; (dose: 100.0 mg/kg/injection, schedule: Q01DX009 (ip), vehicle: saline) 0 of 6; under setting [4], 0 of 6.

For the compound `COC(=O)c1cc(=O)n(-c2ccccc2OC)c(SC)n1`, the survivor count under setting [7] is recorded as 4 of 6 and the survivor count under setting [8] is reported as 0 of 6.

Regarding `COC(=O)c1[nH]c(=S)[nH]c(=O)c1C`, the survivor count under setting [9] was 0 of 6.

Regarding `CC(=O)C1C(=O)C(=O)N(c2ccccc2C)C1=O` (centres undefined), the survivor count under setting [10] is recorded as 0 of 6.

For `COC(=O)c1ncn(C2CCCCC2)c1N`, the survivor count (dose: 25.0 mg/kg/injection, schedule: Q01DX005 (ip), vehicle: saline with Tween-80) is given as 0 of 6; the survivor count (dose: 50.0 mg/kg/injection, schedule: Q01DX005 (ip), vehicle: saline with Tween-80) was 0 of 6; the survivor count under setting [11] is given as 0 of 6; the survivor count under setting [9] is recorded as 0 of 6.

Take `CCC(=O)C[N+]12CCN(CC1)CC2`: the survivor count (dose: 100.0 mg/kg/injection, schedule: Q04DX002 (ip), vehicle: Klucel (hydroxypropylcellulose) (HPC)) was 0 of 6; the survivor count under setting [7] is 0 of 6; the survivor count under setting [8] is 0 of 6.

Turning to `CCS(=O)(=O)Nc1cccc(Nc2c3cccc(C)c3nc3c(C)cccc23)c1OC`, the T/C is, setting by setting: (dose: 1.4 mg/kg/injection, schedule: Q01DX009 (ip), vehicle: saline with Tween-80) 126 % of control; (dose: 2.8 mg/kg/injection, schedule: Q01DX009 (ip), vehicle: saline with Tween-80) 135 % of control. Further, for the setting “dose: 100.0 mg/kg/injection, schedule: Q01DX009 (ip), vehicle: saline with Tween-80”, the survivor count is given as 6 of 6.

Take `Cc1cc(NCCCN(C)C)c2ccc3cc4ccccc4cc3c2n1`: the survivor count is recorded as 5 of 6 (dose: 200.0 mg/kg/injection, schedule: Q04DX002 (ip), vehicle: saline with Tween-80) and 2 of 6 (dose: 400.0 mg/kg/injection, schedule: Q04DX002 (ip), vehicle: saline with Tween-80).

As for `Cc1ccc([C@H]2N[C@@H]2c2ccccn2)cc1`, the survivor count under setting [10] is on record as 0 of 6.

For `CCCC(=O)O[C@H]1/C(=C/C(=O)OC)C[C@H]2C[C@H]([C@@H](C)O)OC(=O)C[C@H](O)C[C@@H]3C[C@H](OC(=O)CC(C)C)C(C)(C)[C@](O)(C[C@@H]4C/C(=C\C(=O)OC)C[C@H](/C=C/C(C)(C)[C@]1(O)O2)O4)O3`, the T/C (dose: 0.03 mg/kg/injection, schedule: Q01DX009 (ip), vehicle: saline + alcohol) is 130 % of control.

Regarding `O=C1C=CC(O)C2OC12` (centres undefined), the survivor count reads like this: (dose: 20.0 mg/kg/injection, schedule: Q04DX002 (ip), vehicle: saline) 0 of 6; (dose: 100.0 mg/kg/injection, schedule: Q04DX002 (ip), vehicle: saline) 0 of 6; (dose: 200.0 mg/kg/injection, schedule: Q04DX002 (ip), vehicle: saline) 0 of 6; (dose: 400.0 mg/kg/injection, schedule: Q04DX002 (ip), vehicle: saline) 0 of 6.

On to `C=Cc1ccc2cccc(O)c2n1`, for which the survivor count by setting is: (dose: 200.0 mg/kg/injection, schedule: Q01DX001 (ip), vehicle: saline with Tween-80) 3 of 6; (dose: 400.0 mg/kg/injection, schedule: Q01DX001 (ip), vehicle: saline with Tween-80) 0 of 6.

Take `S=P(N1CC1)(N1CC1)N1CC1.[Cl-].[Cl-].[NH2-].[NH2-].[Pt+4]`: the T/C is 126 and 138 % of control (dose: 3.12 mg/kg/injection, schedule: Q01DX009 (ip), vehicle: saline); 133 and 140 % of control under setting [12]. In addition, the survivor count is 4 of 6 under setting [12]; 3 of 6 and 6 of 6 (2×) (dose: 12.5 mg/kg/injection, schedule: Q01DX009 (ip), vehicle: saline); 2 of 6 and 6 of 6 (2×) under setting [6].

As to `O=C(O)C1Cc2c([nH]c3ccccc23)C(CCCCO)N1` (centres undefined), the survivor count is, setting by setting: under setting [1], 0 of 6; under setting [2], 0 of 6.

`CN(C)C1CCc2ccccc2C1OC(=O)c1ccccc1` (centres undefined): the survivor count (dose: 200.0 mg/kg/injection, schedule: Q01DX009 (ip), vehicle: saline with Tween-80) is 3 of 6.

`O=CNc1cccc(NC=O)c1`: under setting [5], the survivor count is on record as 0 of 6.

As to `CCOc1c(N=Nc2ccccc2Cl)c(C)nn1C(N)=S`, the survivor count runs as follows: (dose: 30.0 mg/kg/injection, schedule: Q01DX005 (ip), vehicle: Klucel + Tween-80) 0 of 6; (dose: 60.0 mg/kg/injection, schedule: Q01DX005 (ip), vehicle: Klucel + Tween-80) 0 of 6; (dose: 120.0 mg/kg/injection, schedule: Q01DX005 (ip), vehicle: Klucel + Tween-80) 0 of 6; (dose: 240.0 mg/kg/injection, schedule: Q01DX005 (ip), vehicle: Klucel + Tween-80) 0 of 6.

Turning to `OCC(O)C(O)C(O)c1nn(-c2ccccc2)c2nc3ccccc3nc12` (centres undefined), the survivor count under setting [11] is on record as 6 of 6.

With `Brc1ccc(-c2cnc3nc4[nH]c5ccccc5c4nn23)cc1`, the survivor count under setting [11] was 6 of 6 and the survivor count under setting [9] is 6 of 6.
